Results deposited as PubChem BioAssay AID1508597 (Cure First, 2020)
Shown is an unselected part of the about 2,100 reagents, in one setting of the screen. 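Calls flag viability under 80% in either arm, not effects specific to rucaparib; the reference for percent is not stated.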 Unmarked entries are inactive. No sequences are given here. Not stated in the record: the 100% reference.

- Test: 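Survival screen with siRNA in ovarian cancer cells derived from patients, with or without rucaparib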 (primary screen)
- Cell system: human ovarian carcinoma lines grown from tumours: OCI-P5x (papillary serous) and OCI-C5x (clear cell)
- Knock-down reagent: siRNA pool against human genes, 1.25 pmol siRNA per well
- Timing: 72 h or 96 h, depending on the cell culture
- Conditions: rucaparib 20 µM (about IC30) or vehicle, present until read-out
- Rucaparib or vehicle: Vehicle
- Cell line: OCI-C5x (clear cell)
- Measurement: 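ATP luminescence measured at 72 or 96 h according to the culture, then normalised and expressed as percent viability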
- Scale: viability, normalised: higher = more viable cells remaining
- Rule for the call: 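Active when normalised viability falls below 80 percent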
- Calls: active = viability under 80%; inactive = viability 80% or more

{"gene":"ITPKC","technical replicate":"1","viability, normalised (%)":"56.2 (active)"}
{"gene":"ITPKC","technical replicate":"2","viability, normalised (%)":"57 (active)"}
{"gene":"ITPKC","technical replicate":"3","viability, normalised (%)":"55.2 (active)"}
{"gene":"PRMT7","technical replicate":"1","viability, normalised (%)":"47.8 (active)"}
{"gene":"PRMT7","technical replicate":"2","viability, normalised (%)":"36.2 (active)"}
{"gene":"PRMT7","technical replicate":"3","viability, normalised (%)":"53.7 (active)"}
{"gene":"PROX1","technical replicate":"1","viability, normalised (%)":"32.8 (active)"}
{"gene":"PROX1","technical replicate":"2","viability, normalised (%)":"36 (active)"}
{"gene":"PROX1","technical replicate":"3","viability, normalised (%)":"36.9 (active)"}
{"gene":"PELO","technical replicate":"1","viability, normalised (%)":"29.5 (active)"}
{"gene":"PELO","technical replicate":"2","viability, normalised (%)":"20.1 (active)"}
{"gene":"PELO","technical replicate":"3","viability, normalised (%)":"36.7 (active)"}
{"gene":"PRKCG","technical replicate":"1","viability, normalised (%)":"64.5 (active)"}
{"gene":"PRKCG","technical replicate":"2","viability, normalised (%)":88}
{"gene":"PRKCG","technical replicate":"3","viability, normalised (%)":"62.6 (active)"}

Reformatted: 4 of the entries above
gene	technical replicate	viability, normalised (%)
PROX1	3	36.9 (active)
PELO	1	29.5 (active)
PELO	2	20.1 (active)
PELO	3	36.7 (active)

The listing continues:
{"gene":"TESK2","technical replicate":"1","viability, normalised (%)":"57.5 (active)"}
{"gene":"TESK2","technical replicate":"2","viability, normalised (%)":"54.6 (active)"}
{"gene":"TESK2","technical replicate":"3","viability, normalised (%)":"49.5 (active)"}
{"gene":"CHRAC1","technical replicate":"1","viability, normalised (%)":"41.7 (active)"}
{"gene":"CHRAC1","technical replicate":"2","viability, normalised (%)":"53.6 (active)"}
{"gene":"CHRAC1","technical replicate":"3","viability, normalised (%)":"57.2 (active)"}
{"gene":"CLDN14","technical replicate":"1","viability, normalised (%)":"28.5 (active)"}
{"gene":"CLDN14","technical replicate":"2","viability, normalised (%)":"23.4 (active)"}
{"gene":"CLDN14","technical replicate":"3","viability, normalised (%)":"19.3 (active)"}
{"gene":"REV3L","technical replicate":"1","viability, normalised (%)":"38.5 (active)"}
{"gene":"REV3L","technical replicate":"2","viability, normalised (%)":"37.8 (active)"}
{"gene":"REV3L","technical replicate":"3","viability, normalised (%)":"50.5 (active)"}
{"gene":"NRXN2","technical replicate":"1","viability, normalised (%)":"53.8 (active)"}
{"gene":"NRXN2","technical replicate":"2","viability, normalised (%)":"34.4 (active)"}
{"gene":"NRXN2","technical replicate":"3","viability, normalised (%)":"40.7 (active)"}
{"gene":"HDGFL1","technical replicate":"1","viability, normalised (%)":"59.6 (active)"}
{"gene":"HDGFL1","technical replicate":"2","viability, normalised (%)":"56.6 (active)"}
{"gene":"HDGFL1","technical replicate":"3","viability, normalised (%)":"68.2 (active)"}
{"gene":"RAD1","technical replicate":"1","viability, normalised (%)":"61.8 (active)"}
{"gene":"RAD1","technical replicate":"2","viability, normalised (%)":"47.9 (active)"}
{"gene":"RAD1","technical replicate":"3","viability, normalised (%)":"48.9 (active)"}
{"gene":"ACTR8","technical replicate":"1","viability, normalised (%)":"66 (active)"}
{"gene":"ACTR8","technical replicate":"2","viability, normalised (%)":"39.9 (active)"}
{"gene":"ACTR8","technical replicate":"3","viability, normalised (%)":"54.4 (active)"}
{"gene":"IFIH1","technical replicate":"1","viability, normalised (%)":"54.4 (active)"}
{"gene":"IFIH1","technical replicate":"2","viability, normalised (%)":"51.7 (active)"}
{"gene":"IFIH1","technical replicate":"3","viability, normalised (%)":"64.6 (active)"}
